Structures can show the parent of a compound that is named as a salt. The list shows a part of the results. Hit calls seldom repeat between salt and free forms of one compound.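 Kinases were expressed as nanoluciferase fusions in K562 cells and luminescence was read every 4 h between 2 and 18 h as percent of control, DMSO set to 100% and a positive control to 0%. A time point counts as decreased when the signal drops significantly (2 sigma). The hit call is the authors' own, does not follow from the count of time points alone, and its rule is not shown.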
Key:
Settings in all cases: K562; 2-18 h
[1] = target: STK38 (UniProt Q15208); assay: kinase-Nluc reporter destabilization hit call (1 = scored as downregulated) (binary); higher = compound decreases kinase abundance
[2] = target: SYK (UniProt P43405); assay: as above
[3] = target: TEC (UniProt P42680); assay: as above
[4] = target: TYK2 (UniProt P29597); assay: as above
[5] = target: ULK3 (UniProt Q6PHR2); assay: as above
[6] = target: YES1 (UniProt P07947); assay: as above
[7] = target: ZAK (UniProt Q9NYL2); assay: as above
[8] = target: ZAP70 (UniProt P43403); assay: as above
[9] = target: ABL1 (UniProt P00519); assay: number of time points (of 5) at which kinase-Nluc abundance scored as decreased, DMSO-normalised (count); higher = more persistent destabilization
[10] = target: AKT1 (UniProt P31749); assay: as above

Chains of the proteins cited; added tags and fusions are not shown. Lines headed by an entry give the natural chain unless they say otherwise; changes in a name come on top.
UniProt Q15208: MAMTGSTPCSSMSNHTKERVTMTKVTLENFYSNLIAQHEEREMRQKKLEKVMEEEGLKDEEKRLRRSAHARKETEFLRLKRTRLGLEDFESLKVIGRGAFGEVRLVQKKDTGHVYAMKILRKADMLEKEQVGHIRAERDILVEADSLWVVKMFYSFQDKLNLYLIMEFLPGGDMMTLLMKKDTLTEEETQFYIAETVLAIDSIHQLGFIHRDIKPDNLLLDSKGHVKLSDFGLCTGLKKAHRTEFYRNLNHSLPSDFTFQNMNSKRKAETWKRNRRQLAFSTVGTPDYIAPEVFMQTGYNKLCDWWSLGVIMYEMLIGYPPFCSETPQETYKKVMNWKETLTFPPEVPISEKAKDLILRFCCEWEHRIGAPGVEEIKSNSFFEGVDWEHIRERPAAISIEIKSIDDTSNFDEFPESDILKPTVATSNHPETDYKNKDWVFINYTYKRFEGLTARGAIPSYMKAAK
UniProt P42680: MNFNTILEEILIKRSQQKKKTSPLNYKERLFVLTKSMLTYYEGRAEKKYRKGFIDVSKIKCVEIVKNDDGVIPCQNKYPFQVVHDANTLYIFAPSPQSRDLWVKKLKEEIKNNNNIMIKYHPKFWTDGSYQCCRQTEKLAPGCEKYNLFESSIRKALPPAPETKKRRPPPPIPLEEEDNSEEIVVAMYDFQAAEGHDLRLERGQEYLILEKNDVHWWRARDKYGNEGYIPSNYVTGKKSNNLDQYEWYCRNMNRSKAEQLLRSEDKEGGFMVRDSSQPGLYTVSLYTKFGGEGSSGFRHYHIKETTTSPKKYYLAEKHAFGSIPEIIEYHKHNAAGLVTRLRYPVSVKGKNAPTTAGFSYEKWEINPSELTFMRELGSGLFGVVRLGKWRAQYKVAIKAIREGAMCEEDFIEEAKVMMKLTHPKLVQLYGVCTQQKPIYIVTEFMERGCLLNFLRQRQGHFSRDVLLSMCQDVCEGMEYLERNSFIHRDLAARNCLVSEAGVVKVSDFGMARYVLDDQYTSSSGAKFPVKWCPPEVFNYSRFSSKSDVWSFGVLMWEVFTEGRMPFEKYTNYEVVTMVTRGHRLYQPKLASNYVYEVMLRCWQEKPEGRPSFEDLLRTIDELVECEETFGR
UniProt P29597: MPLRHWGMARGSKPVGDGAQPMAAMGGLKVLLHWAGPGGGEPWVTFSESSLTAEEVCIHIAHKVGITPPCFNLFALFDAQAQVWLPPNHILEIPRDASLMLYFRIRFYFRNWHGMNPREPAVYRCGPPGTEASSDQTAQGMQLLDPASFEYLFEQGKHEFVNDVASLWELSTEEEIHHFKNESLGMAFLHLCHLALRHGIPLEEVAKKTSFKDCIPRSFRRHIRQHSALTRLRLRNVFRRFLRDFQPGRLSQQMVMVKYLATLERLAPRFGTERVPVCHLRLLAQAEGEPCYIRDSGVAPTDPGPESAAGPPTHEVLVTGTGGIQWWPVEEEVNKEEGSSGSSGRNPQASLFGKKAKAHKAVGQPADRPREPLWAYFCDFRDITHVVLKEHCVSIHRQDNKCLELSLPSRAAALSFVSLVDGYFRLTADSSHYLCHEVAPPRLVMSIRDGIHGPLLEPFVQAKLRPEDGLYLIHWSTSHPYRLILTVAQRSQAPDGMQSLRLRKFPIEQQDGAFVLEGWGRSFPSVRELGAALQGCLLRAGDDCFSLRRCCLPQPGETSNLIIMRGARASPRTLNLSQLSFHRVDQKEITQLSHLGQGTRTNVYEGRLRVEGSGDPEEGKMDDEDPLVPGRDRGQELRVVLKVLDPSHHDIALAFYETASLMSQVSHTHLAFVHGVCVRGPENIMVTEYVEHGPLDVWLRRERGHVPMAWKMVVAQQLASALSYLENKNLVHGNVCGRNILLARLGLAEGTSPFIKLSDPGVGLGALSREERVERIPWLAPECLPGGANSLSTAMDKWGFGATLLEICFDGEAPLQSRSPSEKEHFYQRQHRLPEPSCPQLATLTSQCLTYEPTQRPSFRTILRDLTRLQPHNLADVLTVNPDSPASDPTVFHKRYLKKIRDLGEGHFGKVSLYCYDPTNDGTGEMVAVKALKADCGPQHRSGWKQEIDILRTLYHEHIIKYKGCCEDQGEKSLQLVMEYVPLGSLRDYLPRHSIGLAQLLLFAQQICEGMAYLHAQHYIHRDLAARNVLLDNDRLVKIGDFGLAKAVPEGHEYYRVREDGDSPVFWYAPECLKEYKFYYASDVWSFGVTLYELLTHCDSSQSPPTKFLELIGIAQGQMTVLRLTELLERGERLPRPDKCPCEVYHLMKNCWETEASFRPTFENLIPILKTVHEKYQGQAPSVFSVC
UniProt Q6PHR2: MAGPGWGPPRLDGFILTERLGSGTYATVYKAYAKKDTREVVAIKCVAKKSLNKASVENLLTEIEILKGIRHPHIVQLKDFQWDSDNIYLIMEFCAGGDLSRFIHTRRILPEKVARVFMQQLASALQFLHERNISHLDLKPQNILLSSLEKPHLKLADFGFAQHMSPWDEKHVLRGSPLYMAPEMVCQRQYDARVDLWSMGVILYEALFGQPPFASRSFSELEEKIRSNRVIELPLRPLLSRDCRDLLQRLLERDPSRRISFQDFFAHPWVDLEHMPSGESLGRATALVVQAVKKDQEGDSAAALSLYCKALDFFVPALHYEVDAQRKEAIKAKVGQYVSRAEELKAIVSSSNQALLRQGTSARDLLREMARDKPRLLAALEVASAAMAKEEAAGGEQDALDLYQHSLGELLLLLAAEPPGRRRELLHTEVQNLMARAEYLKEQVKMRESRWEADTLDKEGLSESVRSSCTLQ
UniProt P07947, whole entry, looked up: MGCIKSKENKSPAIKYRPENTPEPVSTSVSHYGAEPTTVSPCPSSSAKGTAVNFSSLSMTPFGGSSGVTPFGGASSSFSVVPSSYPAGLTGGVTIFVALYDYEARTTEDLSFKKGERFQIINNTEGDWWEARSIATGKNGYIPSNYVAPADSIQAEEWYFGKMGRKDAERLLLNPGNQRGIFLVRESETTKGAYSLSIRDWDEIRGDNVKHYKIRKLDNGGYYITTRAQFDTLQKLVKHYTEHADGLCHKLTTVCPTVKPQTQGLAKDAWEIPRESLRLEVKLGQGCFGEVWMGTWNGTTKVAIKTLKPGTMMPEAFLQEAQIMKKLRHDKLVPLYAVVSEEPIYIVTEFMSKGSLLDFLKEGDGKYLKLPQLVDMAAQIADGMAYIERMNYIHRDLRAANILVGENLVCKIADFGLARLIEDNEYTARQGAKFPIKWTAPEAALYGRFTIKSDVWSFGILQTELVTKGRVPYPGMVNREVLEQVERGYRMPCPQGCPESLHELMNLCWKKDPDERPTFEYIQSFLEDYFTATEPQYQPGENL
UniProt P43403: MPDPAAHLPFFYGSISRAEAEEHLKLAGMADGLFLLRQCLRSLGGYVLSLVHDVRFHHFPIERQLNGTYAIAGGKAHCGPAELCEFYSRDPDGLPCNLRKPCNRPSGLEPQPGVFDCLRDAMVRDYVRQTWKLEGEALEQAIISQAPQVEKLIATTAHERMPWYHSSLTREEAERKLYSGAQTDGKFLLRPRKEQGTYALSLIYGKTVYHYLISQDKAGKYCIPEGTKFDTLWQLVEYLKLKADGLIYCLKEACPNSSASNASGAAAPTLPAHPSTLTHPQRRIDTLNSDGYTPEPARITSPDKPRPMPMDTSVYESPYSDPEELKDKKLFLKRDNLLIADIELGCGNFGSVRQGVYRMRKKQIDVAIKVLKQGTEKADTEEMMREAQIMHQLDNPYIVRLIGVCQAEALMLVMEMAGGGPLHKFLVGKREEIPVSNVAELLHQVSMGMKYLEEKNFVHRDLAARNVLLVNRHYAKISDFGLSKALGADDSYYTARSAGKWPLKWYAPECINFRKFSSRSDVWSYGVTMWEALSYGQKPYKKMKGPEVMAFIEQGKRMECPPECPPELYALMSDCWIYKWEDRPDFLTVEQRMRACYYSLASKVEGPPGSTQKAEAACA
UniProt P00519, whole entry: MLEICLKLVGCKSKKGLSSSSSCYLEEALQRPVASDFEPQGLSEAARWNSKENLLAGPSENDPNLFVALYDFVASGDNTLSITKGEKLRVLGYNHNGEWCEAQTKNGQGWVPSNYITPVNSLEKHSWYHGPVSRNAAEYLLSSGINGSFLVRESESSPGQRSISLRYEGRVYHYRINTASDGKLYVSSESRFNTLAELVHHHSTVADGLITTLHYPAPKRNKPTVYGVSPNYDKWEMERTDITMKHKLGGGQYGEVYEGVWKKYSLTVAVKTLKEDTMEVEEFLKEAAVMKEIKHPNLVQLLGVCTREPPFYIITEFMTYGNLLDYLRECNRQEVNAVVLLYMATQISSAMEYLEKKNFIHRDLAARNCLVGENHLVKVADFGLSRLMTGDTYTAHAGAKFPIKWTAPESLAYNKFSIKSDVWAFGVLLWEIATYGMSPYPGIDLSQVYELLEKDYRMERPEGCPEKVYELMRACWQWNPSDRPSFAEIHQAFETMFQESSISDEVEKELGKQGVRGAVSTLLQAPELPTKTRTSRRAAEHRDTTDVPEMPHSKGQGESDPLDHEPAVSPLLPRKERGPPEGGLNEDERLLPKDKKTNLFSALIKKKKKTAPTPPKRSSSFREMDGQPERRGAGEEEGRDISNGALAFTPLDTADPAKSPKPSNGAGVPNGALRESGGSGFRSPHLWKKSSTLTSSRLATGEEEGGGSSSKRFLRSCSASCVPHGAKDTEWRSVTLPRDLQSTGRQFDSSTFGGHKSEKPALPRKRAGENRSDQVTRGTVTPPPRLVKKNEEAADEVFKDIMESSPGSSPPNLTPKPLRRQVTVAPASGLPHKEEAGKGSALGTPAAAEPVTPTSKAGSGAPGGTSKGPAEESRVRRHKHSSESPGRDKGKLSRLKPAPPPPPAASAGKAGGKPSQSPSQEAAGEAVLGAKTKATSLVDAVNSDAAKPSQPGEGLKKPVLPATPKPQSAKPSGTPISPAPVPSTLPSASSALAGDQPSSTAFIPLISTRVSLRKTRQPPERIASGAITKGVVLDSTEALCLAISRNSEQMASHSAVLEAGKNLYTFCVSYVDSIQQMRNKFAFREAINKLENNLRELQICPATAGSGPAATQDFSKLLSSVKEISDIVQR
UniProt P31749: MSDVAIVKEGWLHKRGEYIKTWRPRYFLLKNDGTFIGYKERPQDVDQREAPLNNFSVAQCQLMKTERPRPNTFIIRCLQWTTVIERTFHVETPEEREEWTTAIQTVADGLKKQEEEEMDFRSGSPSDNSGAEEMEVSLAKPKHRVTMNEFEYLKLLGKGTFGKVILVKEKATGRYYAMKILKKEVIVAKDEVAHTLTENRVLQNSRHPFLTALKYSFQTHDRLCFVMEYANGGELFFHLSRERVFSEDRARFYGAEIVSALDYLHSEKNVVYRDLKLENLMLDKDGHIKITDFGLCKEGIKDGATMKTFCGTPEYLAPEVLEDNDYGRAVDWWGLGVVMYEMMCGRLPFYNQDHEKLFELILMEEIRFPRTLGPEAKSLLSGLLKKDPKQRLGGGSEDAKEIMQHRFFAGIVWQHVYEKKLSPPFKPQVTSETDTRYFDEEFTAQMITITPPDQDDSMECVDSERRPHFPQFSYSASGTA

Cn1cc(C2=C(c3cccc(N)c3)C(=O)NC2=O)c2ccccc21 (10 µM)
inactive: kinase-Nluc reporter destabilization hit call [1] 0 | kinase-Nluc reporter destabilization hit call [2] 0 | kinase-Nluc reporter destabilization hit call [3] 0 | kinase-Nluc reporter destabilization hit call [4] 0 | kinase-Nluc reporter destabilization hit call [5] 0 | kinase-Nluc reporter destabilization hit call [6] 0 | kinase-Nluc reporter destabilization hit call [7] 0 | kinase-Nluc reporter destabilization hit call [8] 0
0: number of time points [9] | number of time points [10]

CCCCCCCC/C=C\CCCCCCCCCCCC(=O)O [Erucic acid] (10 µM)
0: number of time points [9] | number of time points [10]
inactive: kinase-Nluc reporter destabilization hit call [1] 0 | kinase-Nluc reporter destabilization hit call [2] 0 | kinase-Nluc reporter destabilization hit call [3] 0 | kinase-Nluc reporter destabilization hit call [4] 0 | kinase-Nluc reporter destabilization hit call [5] 0 | kinase-Nluc reporter destabilization hit call [6] 0 | kinase-Nluc reporter destabilization hit call [7] 0 | kinase-Nluc reporter destabilization hit call [8] 0

CCc1cccc(CC)c1NC(=O)N1Cc2[nH]nc(NC(=O)c3ccc(N4CCN(C)CC4)cc3)c2C1 (2.5 µM)
2: number of time points [9]
0: number of time points [10]
inactive: kinase-Nluc reporter destabilization hit call [1] 0 | kinase-Nluc reporter destabilization hit call [2] 0 | kinase-Nluc reporter destabilization hit call [3] 0 | kinase-Nluc reporter destabilization hit call [4] 0 | kinase-Nluc reporter destabilization hit call [5] 0 | kinase-Nluc reporter destabilization hit call [6] 0 | kinase-Nluc reporter destabilization hit call [7] 0 | kinase-Nluc reporter destabilization hit call [8] 0

C=CCc1ccc(O)c(-c2ccc(O)c(CC=C)c2)c1 [Honokiol] (10 µM)
inactive: kinase-Nluc reporter destabilization hit call [1] 0 | kinase-Nluc reporter destabilization hit call [2] 0 | kinase-Nluc reporter destabilization hit call [3] 0 | kinase-Nluc reporter destabilization hit call [4] 0 | kinase-Nluc reporter destabilization hit call [5] 0 | kinase-Nluc reporter destabilization hit call [6] 0 | kinase-Nluc reporter destabilization hit call [7] 0 | kinase-Nluc reporter destabilization hit call [8] 0
0: number of time points [9] | number of time points [10]

O=C(NC1CCOCC1)c1ccc(-c2cc(-c3c[nH]nc3-c3ccccn3)ccn2)cc1 (10 µM)
inactive: kinase-Nluc reporter destabilization hit call [1] 0 | kinase-Nluc reporter destabilization hit call [2] 0 | kinase-Nluc reporter destabilization hit call [3] 0 | kinase-Nluc reporter destabilization hit call [4] 0 | kinase-Nluc reporter destabilization hit call [5] 0 | kinase-Nluc reporter destabilization hit call [6] 0 | kinase-Nluc reporter destabilization hit call [7] 0 | kinase-Nluc reporter destabilization hit call [8] 0
0: number of time points [9] | number of time points [10]

O=C(Nc1nc2ccccc2[nH]1)c1cccc([N+](=O)[O-])c1 [IRAK-4 protein kinase inhibitor 2] (10 µM)
inactive: kinase-Nluc reporter destabilization hit call [1] 0 | kinase-Nluc reporter destabilization hit call [2] 0 | kinase-Nluc reporter destabilization hit call [3] 0 | kinase-Nluc reporter destabilization hit call [4] 0 | kinase-Nluc reporter destabilization hit call [5] 0 | kinase-Nluc reporter destabilization hit call [6] 0 | kinase-Nluc reporter destabilization hit call [7] 0 | kinase-Nluc reporter destabilization hit call [8] 0
0: number of time points [9] | number of time points [10]

O=Nc1c2[nH]c3ccccc3nc-2c2ccccc12 [IQ-1S (free acid)] (2.5 µM)
0: number of time points [9] | number of time points [10]
inactive: kinase-Nluc reporter destabilization hit call [1] 0 | kinase-Nluc reporter destabilization hit call [2] 0 | kinase-Nluc reporter destabilization hit call [3] 0 | kinase-Nluc reporter destabilization hit call [4] 0 | kinase-Nluc reporter destabilization hit call [5] 0 | kinase-Nluc reporter destabilization hit call [6] 0 | kinase-Nluc reporter destabilization hit call [7] 0 | kinase-Nluc reporter destabilization hit call [8] 0

COc1ccc(N=Nc2c(N)n[nH]c2N)cc1 (10 µM)
inactive: kinase-Nluc reporter destabilization hit call [1] 0 | kinase-Nluc reporter destabilization hit call [2] 0 | kinase-Nluc reporter destabilization hit call [3] 0 | kinase-Nluc reporter destabilization hit call [4] 0 | kinase-Nluc reporter destabilization hit call [5] 0 | kinase-Nluc reporter destabilization hit call [6] 0 | kinase-Nluc reporter destabilization hit call [7] 0 | kinase-Nluc reporter destabilization hit call [8] 0
0: number of time points [9] | number of time points [10]

Nothing new here: two of the compounds above.
C=CCc1ccc(O)c(-c2ccc(O)c(CC=C)c2)c1 [Honokiol] (10 µM)
inactive: kinase-Nluc reporter destabilization hit call [1] 0 | kinase-Nluc reporter destabilization hit call [2] 0 | kinase-Nluc reporter destabilization hit call [3] 0 | kinase-Nluc reporter destabilization hit call [4] 0 | kinase-Nluc reporter destabilization hit call [5] 0 | kinase-Nluc reporter destabilization hit call [6] 0 | kinase-Nluc reporter destabilization hit call [7] 0 | kinase-Nluc reporter destabilization hit call [8] 0
0: number of time points [9] | number of time points [10]

O=C(NC1CCOCC1)c1ccc(-c2cc(-c3c[nH]nc3-c3ccccn3)ccn2)cc1 (10 µM)
inactive: kinase-Nluc reporter destabilization hit call [1] 0 | kinase-Nluc reporter destabilization hit call [2] 0 | kinase-Nluc reporter destabilization hit call [3] 0 | kinase-Nluc reporter destabilization hit call [4] 0 | kinase-Nluc reporter destabilization hit call [5] 0 | kinase-Nluc reporter destabilization hit call [6] 0 | kinase-Nluc reporter destabilization hit call [7] 0 | kinase-Nluc reporter destabilization hit call [8] 0
0: number of time points [9] | number of time points [10]

Next part:

C[C@H](NC(=O)[C@H]1NCC[C@@H]1O)c1ccc(-c2noc(CCC3CCCC3)n2)cc1 (10 µM)
0: number of time points [9] | number of time points [10]
inactive: kinase-Nluc reporter destabilization hit call [1] 0 | kinase-Nluc reporter destabilization hit call [2] 0 | kinase-Nluc reporter destabilization hit call [3] 0 | kinase-Nluc reporter destabilization hit call [4] 0 | kinase-Nluc reporter destabilization hit call [5] 0 | kinase-Nluc reporter destabilization hit call [6] 0 | kinase-Nluc reporter destabilization hit call [7] 0 | kinase-Nluc reporter destabilization hit call [8] 0

O=C(O)c1cc(N(Cc2ccccc2O)Cc2ccccc2O)ccc1O [Lavendustin B] (10 µM)
inactive: kinase-Nluc reporter destabilization hit call [1] 0 | kinase-Nluc reporter destabilization hit call [2] 0 | kinase-Nluc reporter destabilization hit call [3] 0 | kinase-Nluc reporter destabilization hit call [4] 0 | kinase-Nluc reporter destabilization hit call [5] 0 | kinase-Nluc reporter destabilization hit call [6] 0 | kinase-Nluc reporter destabilization hit call [7] 0 | kinase-Nluc reporter destabilization hit call [8] 0
0: number of time points [9] | number of time points [10]

Oc1ccc(/C=C/c2cc(O)cc(F)c2)cc1 [Resveratrol analog 1] (10 µM)
0: number of time points [9] | number of time points [10]
inactive: kinase-Nluc reporter destabilization hit call [1] 0 | kinase-Nluc reporter destabilization hit call [2] 0 | kinase-Nluc reporter destabilization hit call [3] 0 | kinase-Nluc reporter destabilization hit call [4] 0 | kinase-Nluc reporter destabilization hit call [5] 0 | kinase-Nluc reporter destabilization hit call [6] 0 | kinase-Nluc reporter destabilization hit call [7] 0 | kinase-Nluc reporter destabilization hit call [8] 0

NC(=S)n1[nH]c(-c2ccc([N+](=O)[O-])cc2)c(N=Nc2cccc(Cl)c2)c1=O (2.5 µM)
inactive: kinase-Nluc reporter destabilization hit call [1] 0 | kinase-Nluc reporter destabilization hit call [2] 0 | kinase-Nluc reporter destabilization hit call [3] 0 | kinase-Nluc reporter destabilization hit call [4] 0 | kinase-Nluc reporter destabilization hit call [5] 0 | kinase-Nluc reporter destabilization hit call [6] 0 | kinase-Nluc reporter destabilization hit call [7] 0 | kinase-Nluc reporter destabilization hit call [8] 0
0: number of time points [9] | number of time points [10]

C[C@H](Nc1ncnc2nc[nH]c12)c1cc2cccc(Cl)c2c(=O)n1-c1ccccc1 [Duvelisib] (10 µM)
2: number of time points [9]
0: number of time points [10]
inactive: kinase-Nluc reporter destabilization hit call [1] 0 | kinase-Nluc reporter destabilization hit call [2] 0 | kinase-Nluc reporter destabilization hit call [3] 0 | kinase-Nluc reporter destabilization hit call [4] 0 | kinase-Nluc reporter destabilization hit call [5] 0 | kinase-Nluc reporter destabilization hit call [6] 0 | kinase-Nluc reporter destabilization hit call [7] 0 | kinase-Nluc reporter destabilization hit call [8] 0

Cc1nc(-c2cnn(C)c2)nc2c1[nH]c1ncc(-c3ccc(N4CCN(C)CC4)cc3)cc12 [GNE 220 (hydrochloride)] (10 µM)
0: number of time points [9] | number of time points [10]
inactive: kinase-Nluc reporter destabilization hit call [1] 0 | kinase-Nluc reporter destabilization hit call [2] 0 | kinase-Nluc reporter destabilization hit call [3] 0 | kinase-Nluc reporter destabilization hit call [4] 0 | kinase-Nluc reporter destabilization hit call [5] 0 | kinase-Nluc reporter destabilization hit call [6] 0 | kinase-Nluc reporter destabilization hit call [7] 0 | kinase-Nluc reporter destabilization hit call [8] 0

CC(C)CCNC(=O)c1ccc2c(c1)nc(Nc1n[nH]c3ccc(-c4ccccc4OC(F)(F)F)cc13)n2C1CCC(O)CC1 (stereo not drawn) [IRAK inhibitor 4 (trans)] (10 µM)
inactive: kinase-Nluc reporter destabilization hit call [1] 0 | kinase-Nluc reporter destabilization hit call [2] 0 | kinase-Nluc reporter destabilization hit call [3] 0 | kinase-Nluc reporter destabilization hit call [4] 0 | kinase-Nluc reporter destabilization hit call [5] 0 | kinase-Nluc reporter destabilization hit call [6] 0 | kinase-Nluc reporter destabilization hit call [7] 0 | kinase-Nluc reporter destabilization hit call [8] 0
0: number of time points [9] | number of time points [10]

CNC(=O)c1ccccc1Oc1nc(Nc2cc(OC)c(OC)c(OC)c2)ncc1Br (2.5 µM)
0: number of time points [9] | number of time points [10]
inactive: kinase-Nluc reporter destabilization hit call [1] 0 | kinase-Nluc reporter destabilization hit call [2] 0 | kinase-Nluc reporter destabilization hit call [3] 0 | kinase-Nluc reporter destabilization hit call [4] 0 | kinase-Nluc reporter destabilization hit call [5] 0 | kinase-Nluc reporter destabilization hit call [6] 0 | kinase-Nluc reporter destabilization hit call [7] 0 | kinase-Nluc reporter destabilization hit call [8] 0

CCOC(=O)N1C/C(=C/c2ccccc2F)C(=O)/C(=C\c2ccccc2F)C1 (2.5 µM)
0: number of time points [9] | number of time points [10]
inactive: kinase-Nluc reporter destabilization hit call [1] 0 | kinase-Nluc reporter destabilization hit call [2] 0 | kinase-Nluc reporter destabilization hit call [3] 0 | kinase-Nluc reporter destabilization hit call [4] 0 | kinase-Nluc reporter destabilization hit call [5] 0 | kinase-Nluc reporter destabilization hit call [6] 0 | kinase-Nluc reporter destabilization hit call [7] 0 | kinase-Nluc reporter destabilization hit call [8] 0

— the supplement of paper PMC12823440, “Inhibitors supercharge kinase turnover through native proteolytic circuits” (Nature, 2025)
